# According to the supplement of paper PMC9015667:
# Where a name gives a salt, the structure may show the parent alone. The list shows a part of the results. Single values are uncertain, as repeats are few or missing.
# Test system: M238P (parental melanoma line)
# Experiment: reduction in cell viability relative to untreated/vehicle; higher = more growth inhibition
# Details: 200 nM; 72 h
row,Compound,reduction in cell viability [%]
1,CC[C@@H]1/C=C(\C)C[C@H](C)C[C@H](OC)[C@H]2O[C@@](O)(C(=O)C(=O)N3CCCC[C@H]3C(=O)O[C@H](/C(C)=C/[C@@H]3CC[C@H](Cl)[C@H](OC)C3)[C@H](C)[C@@H](O)CC1=O)[C@H](C)C[C@@H]2OC [Pimecrolimus],< 0
2,S=c1nc[nH]c2nc[nH]c12 [6-mercaptopurine],< 0
3,C[C@@H]1CN(c2c(F)c(N)c3c(=O)c(C(=O)O)cn(C4CC4)c3c2F)C[C@H](C)N1 [Sparfloxacin],< 0
4,OCCn1cc(-c2cnc3nnn(Cc4ccc5ncccc5c4)c3n2)cn1,< 0
5,Cc1cncc2cccc(S(=O)(=O)N3CCCN(C(=O)CN)C[C@@H]3C)c12 [Glycyl-H-1152],< 0
6,CC(O)(C#Cc1ccc2c(c1)N(c1nc(N)ncc1Cl)CC2)c1nccs1 (stereo not given),< 0

# Test system: M238R (matched melanoma line resistant to BRAF inhibitors)
# Experiment: as above
# Details: 200 nM; 72 h
row,Compound,reduction in cell viability [%]
1,CCC[C@@H]1C[C@@H](C(=O)N[C@@H]([C@H]2O[C@H](SC)[C@H](O)[C@@H](O)[C@H]2O)[C@H](C)Cl)N(C)C1 [Clindamycin hydrochloride],< 0
2,CCCCOc1ccc(CC(=O)NO)cc1 [Bufexamac],< 0
3,CCCCCNC(=O)N1CCC(CN(Cc2ccc(Cl)cc2)Cc2ccc([N+](=O)[O-])s2)C1 (stereo not given),< 0
4,NC(=O)c1cccc(-c2cccc(OC(=O)NC3CCCCC3)c2)c1,< 0
5,COC1=C2C[C@@H](C)C[C@H](OC)[C@H](O)[C@@H](C)/C=C(\C)[C@H](OC(N)=O)[C@@H](OC)/C=C\C=C(/C)C(=O)NC(=CC1=O)C2=O [Geldanamycin],< 0
6,Cn1cc(/C=C/C(=O)c2cccc(F)c2)cc1/C=C/C(=O)NO,< 0
7,Clc1ccc(CCC(Cn2ccnc2)Sc2c(Cl)cccc2Cl)cc1 (stereo not given) [Butoconazole nitrate],< 0
8,CCOc1ccc(Nc2nc(-c3c(C)nc4ccccn34)cs2)cc1,63.3
9,Nc1nc(=O)n([C@H]2C[C@H](O)[C@@H](CO)O2)cc1F,< 0
10,C=CC(=O)N1CCC[C@@H](n2nc(-c3ccc(Oc4ccccc4)cc3)c3c(N)ncnc32)C1,< 0
11,O=C1CCCC(=O)C1C(=O)c1ccc(C(F)(F)F)cc1[N+](=O)[O-] [Nitisinone],< 0
12,CCn1c(-c2nonc2N)nc2cnc(Oc3cccc(NC(=O)c4ccc(OCCN5CCOCC5)cc4)c3)cc21,< 0
13,CC[C@H](CO)Nc1nc(NCc2ccccc2)c2ncn(C(C)C)c2n1 [Seliciclib],< 0
14,CCOC(=O)N1CCN(/[N+]([O-])=N/Oc2cc(O/N=[N+](\[O-])N3CCN(C(=O)OCC)CC3)c([N+](=O)[O-])cc2[N+](=O)[O-])CC1 [Double JS-K],< 0
15,CN(Cc1cc(Br)cc(Br)c1N)C1CCCCC1 [Bromhexine hydrochloride],3.57
16,Fc1cc(-c2cccc3ncc(-c4cnn(C5CCNCC5)c4)nc23)cc(F)c1CN1CCOCC1,< 0
17,COc1ccc(-n2nc(C(N)=O)c3c2C(=O)N(c2ccc(N4CCCCC4=O)cc2)CC3)cc1 [Apixaban],< 0
18,CCCCC(F)(F)[C@@]1(O)CC[C@H]2[C@@H](CC(=O)[C@@H]2CCCCCCC(=O)O)O1 [Lubiprostone],< 0
19,CC[C@]1(O)C[C@@H]2CN(CCc3c([nH]c4ccccc34)[C@@](C(=O)OC)(c3cc4c(cc3OC)N(C)[C@H]3[C@@](O)(C(=O)OC)[C@H](OC(C)=O)[C@]5(CC)C=CCN6CC[C@]43[C@@H]65)C2)C1 [Vinblastine],55.5
20,CCN(CC)CCOc1ccc(C(=C(Cl)c2ccccc2)c2ccccc2)cc1 [Clomifene citrate],< 0

row,Compound,reduction in cell viability [%]
1,CCN(CC)CCCCNc1nc2cc(Cl)c(Cl)cc2nc1-c1ccc(-c2cccs2)s1,< 0
2,NNCCc1ccccc1 [Phenelzine],< 0
3,C[C@H](NC(=O)Cc1cc(F)cc(F)c1)C(=O)N[C@@H]1C(=O)N(C)c2ccccc2-c2ccccc21,< 0
4,CCN(CC)CCCC(C)Nc1nc(C)cc(Nc2ccc3nc(C)cc(N)c3c2)n1 (stereo not given),< 0
5,Cc1cc2nc3c(=O)[nH]c(=O)nc-3n(C[C@H](O)[C@H](O)[C@H](O)CO)c2cc1C,< 0
6,Nc1ccn([C@@H]2O[C@H](CO)[C@@H](O)[C@H]2O)c(=O)n1 [Cytidine],< 0
7,O=S(=O)(O)CCS [Mesna],< 0
8,CNC(=O)c1cc(Oc2ccc(NC(=O)Nc3ccc(Cl)c(C(F)(F)F)c3)cc2)ccn1 [Sorafenib],< 0
9,O=C(c1ccc(Nc2nccc(-c3cc4ccccc4s3)n2)cc1)N1CCC(N2CCCC2)CC1,< 0
10,COC(=O)N1CCN(Cc2cccc(NC(=O)Nc3ccc(C)nc3)c2F)CC1 [Omecamtiv mecarbil],< 0
11,CCC1=C[C@@H]2CN(C1)Cc1c([nH]c3ccccc13)[C@@](C(=O)OC)(c1cc3c(cc1OC)N(C)[C@H]1[C@@](O)(C(=O)OC)[C@H](OC(C)=O)[C@]4(CC)C=CCN5CC[C@]31[C@@H]54)C2 [Vinorelbine tartrate],62.5
12,CC(=O)Nc1cccc(-n2c(=O)n(C3CC3)c(=O)c3c(Nc4ccc(I)cc4F)n(C)c(=O)c(C)c32)c1 [Trametinib],< 0
13,CC(C)=CC[C@@H](O)C1=CC(=O)c2c(O)ccc(O)c2C1=O [Shikonin],< 0
14,CC[C@@H]1/C=C(\C)C[C@H](C)C[C@H](OC)[C@H]2O[C@@](O)(C(=O)C(=O)N3CCCC[C@H]3C(=O)O[C@H](/C(C)=C/[C@@H]3CC[C@H](Cl)[C@H](OC)C3)[C@H](C)[C@@H](O)CC1=O)[C@H](C)C[C@@H]2OC [Pimecrolimus],< 0
15,S=c1nc[nH]c2nc[nH]c12 [6-mercaptopurine],< 0
16,C[C@@H]1CN(c2c(F)c(N)c3c(=O)c(C(=O)O)cn(C4CC4)c3c2F)C[C@H](C)N1 [Sparfloxacin],< 0
17,OCCn1cc(-c2cnc3nnn(Cc4ccc5ncccc5c4)c3n2)cn1,< 0
18,Cc1cncc2cccc(S(=O)(=O)N3CCCN(C(=O)CN)C[C@@H]3C)c12 [Glycyl-H-1152],< 0
19,CC(O)(C#Cc1ccc2c(c1)N(c1nc(N)ncc1Cl)CC2)c1nccs1 (stereo not given),< 0
